Measured values: publication PMC7548837
Results are given in words; binding and its absence hold for the method and conditions named. A result given as binding can be weak or reduced; the word gives no strength. Sequences can lack the tags named with a protein.

Biological target: T1, His-Strep-DrXth (AP endonuclease DrXth, DR_0354 protein, from Deinococcus radiodurans) (Deinococcus radiodurans) (UniProt Q9RXF9)
T1 sequence: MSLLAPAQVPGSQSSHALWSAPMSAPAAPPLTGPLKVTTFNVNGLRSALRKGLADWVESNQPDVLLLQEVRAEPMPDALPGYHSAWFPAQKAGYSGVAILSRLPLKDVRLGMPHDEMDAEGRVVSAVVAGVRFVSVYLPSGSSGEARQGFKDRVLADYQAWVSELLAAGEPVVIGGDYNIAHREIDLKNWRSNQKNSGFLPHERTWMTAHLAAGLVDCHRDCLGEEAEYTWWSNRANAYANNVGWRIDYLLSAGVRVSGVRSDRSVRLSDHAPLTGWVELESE
Experiment: pull-down; His-Strep-DrXth (200 ul, 0.5 mM) held on streptavidin beads, 4°C 3 h; beads incubated with 400 ul PolX (0.5 mM) and the same amount of BSA as control, 4°C 3 h; wash buffer 20 mM Tris pH 7.5, 100 mM NaCl, 0.05% Tween 20; beads boiled, 12% SDS-PAGE; both purified

binding: binds
Substance: DrPolX (PolX of Deinococcus radiodurans) (enzyme)
